Data reported in paper PMC5268738, “A sequential multi-target Mps1 phosphorylation cascade promotes spindle checkpoint signaling” (eLife, 2017).
These are yes or no findings as the source states them, for the method shown. Some binding calls cover weakened binding; strength is not graded here. One block for each binder: values may come before it.

What was measured:
human Mad1^CTD (human) = target: T1, human Mad1^CTD (human) (UniProt Q9Y6D9); assay: ITC; 20°C; 25 mM HEPES pH 7.5, 50 mM NaCl; human Mad1^CTD (50 µM) in the cell; human Bub1 phospho-peptides (500 µM) injected; both purified
T1 sequence: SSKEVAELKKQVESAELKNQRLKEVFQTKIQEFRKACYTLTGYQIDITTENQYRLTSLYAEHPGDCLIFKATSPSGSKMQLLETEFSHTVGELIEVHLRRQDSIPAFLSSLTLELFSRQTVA

[1] = target: T2, human Bub1 CM phospho-peptide pS459-pT461 (human) (UniProt O43683); assay: pull-down; synthetic Bub1 phospho-peptides immobilised on SulfoLink resin; Mad1 CTD as prey; SDS-PAGE, Coomassie blue; both purified
T2 sequence (peptide, phosphoserine at 459, phosphothreonine at 461): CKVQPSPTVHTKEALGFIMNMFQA

[2] = target: T3, human Bub1 CM phospho-peptide pS459-pT461-pT464 (human) (UniProt O43683); assay: as above
T3 sequence (peptide, phosphoserine at 459, phosphothreonine at 461, phosphothreonine at 464): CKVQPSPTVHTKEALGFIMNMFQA

[3] = target: T4, human Bub1 CM phospho-peptide pT461 (human) (UniProt O43683); assay: as above
T4 sequence (peptide, phosphothreonine at 461): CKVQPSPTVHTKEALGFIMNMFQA

binding (human Mad1^CTD (human)): binds
Binder: CKVQPSPTVHTKEALGFIMNMFQA (peptide, UniProt O43683 455-477, phosphoserine at 459, phosphothreonine at 461) [human Bub1 CM phospho-peptide pS459-pT461]

binding [1]: binds
binding [2]: binds
binding [3]: binds weakly
B1: human Mad1^CTD (domain or fragment, UniProt Q9Y6D9 597-718)
chain: T1 sequence

binding (human Mad1^CTD (human)): binds
Binder: CKVQPSPTVHTKEALGFIMNMFQA (peptide, UniProt O43683 455-477, phosphothreonine at 461) [human Bub1 CM phospho-peptide pT461]
